# In the supplement of paper PMC12819154, “High-throughput peptide-centric local stability assay extends protein–ligand identification to membrane proteins, tissues and bacteria” (Nature Structural & Molecular Biology, 2025):
# Chains of the proteins cited; added tags and fusions are not shown. Lines headed by an entry give the natural chain unless they say otherwise; changes in a name come on top.
# UniProt Q8NDX6: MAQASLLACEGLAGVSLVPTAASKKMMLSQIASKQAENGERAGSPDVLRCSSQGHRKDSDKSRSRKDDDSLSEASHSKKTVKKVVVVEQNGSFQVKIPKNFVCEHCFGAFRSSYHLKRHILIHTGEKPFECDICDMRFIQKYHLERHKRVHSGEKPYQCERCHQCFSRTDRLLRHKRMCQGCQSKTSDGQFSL
# UniProt Q8NEZ3: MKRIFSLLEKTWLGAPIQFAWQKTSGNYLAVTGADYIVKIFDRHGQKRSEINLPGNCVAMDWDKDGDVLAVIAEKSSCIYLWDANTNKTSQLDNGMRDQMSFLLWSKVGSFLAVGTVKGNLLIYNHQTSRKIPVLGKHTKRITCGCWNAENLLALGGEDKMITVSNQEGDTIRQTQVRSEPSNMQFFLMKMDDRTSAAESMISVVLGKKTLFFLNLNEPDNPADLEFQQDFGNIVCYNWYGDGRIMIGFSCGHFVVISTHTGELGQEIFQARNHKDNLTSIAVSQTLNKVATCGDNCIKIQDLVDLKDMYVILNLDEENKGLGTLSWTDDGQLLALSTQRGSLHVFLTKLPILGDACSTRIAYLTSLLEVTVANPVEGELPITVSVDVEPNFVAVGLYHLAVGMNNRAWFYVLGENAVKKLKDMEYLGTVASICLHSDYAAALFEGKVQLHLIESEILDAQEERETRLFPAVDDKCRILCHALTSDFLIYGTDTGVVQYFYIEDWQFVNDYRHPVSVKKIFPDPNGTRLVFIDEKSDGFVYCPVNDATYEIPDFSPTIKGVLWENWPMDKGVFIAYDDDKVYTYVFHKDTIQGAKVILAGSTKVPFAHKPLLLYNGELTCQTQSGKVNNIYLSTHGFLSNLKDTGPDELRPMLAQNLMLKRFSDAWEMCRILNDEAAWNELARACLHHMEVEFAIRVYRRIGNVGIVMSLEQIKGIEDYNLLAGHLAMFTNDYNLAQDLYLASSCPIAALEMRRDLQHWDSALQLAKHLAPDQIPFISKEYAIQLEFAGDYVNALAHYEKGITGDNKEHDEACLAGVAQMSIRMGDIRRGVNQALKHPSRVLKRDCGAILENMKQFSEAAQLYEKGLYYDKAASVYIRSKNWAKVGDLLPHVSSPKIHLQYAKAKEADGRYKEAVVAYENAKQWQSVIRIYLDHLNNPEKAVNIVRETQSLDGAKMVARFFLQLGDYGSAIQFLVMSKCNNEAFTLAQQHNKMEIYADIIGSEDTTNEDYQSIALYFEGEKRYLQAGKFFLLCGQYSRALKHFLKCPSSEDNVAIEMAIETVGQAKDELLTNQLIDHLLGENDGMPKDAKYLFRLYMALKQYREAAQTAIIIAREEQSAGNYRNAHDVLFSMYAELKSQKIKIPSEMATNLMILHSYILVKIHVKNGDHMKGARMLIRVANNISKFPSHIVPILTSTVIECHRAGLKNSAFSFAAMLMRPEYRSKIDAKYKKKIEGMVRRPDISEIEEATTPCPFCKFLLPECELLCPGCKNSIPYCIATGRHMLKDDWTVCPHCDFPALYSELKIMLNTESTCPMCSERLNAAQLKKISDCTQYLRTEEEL
# UniProt Q8NFY9: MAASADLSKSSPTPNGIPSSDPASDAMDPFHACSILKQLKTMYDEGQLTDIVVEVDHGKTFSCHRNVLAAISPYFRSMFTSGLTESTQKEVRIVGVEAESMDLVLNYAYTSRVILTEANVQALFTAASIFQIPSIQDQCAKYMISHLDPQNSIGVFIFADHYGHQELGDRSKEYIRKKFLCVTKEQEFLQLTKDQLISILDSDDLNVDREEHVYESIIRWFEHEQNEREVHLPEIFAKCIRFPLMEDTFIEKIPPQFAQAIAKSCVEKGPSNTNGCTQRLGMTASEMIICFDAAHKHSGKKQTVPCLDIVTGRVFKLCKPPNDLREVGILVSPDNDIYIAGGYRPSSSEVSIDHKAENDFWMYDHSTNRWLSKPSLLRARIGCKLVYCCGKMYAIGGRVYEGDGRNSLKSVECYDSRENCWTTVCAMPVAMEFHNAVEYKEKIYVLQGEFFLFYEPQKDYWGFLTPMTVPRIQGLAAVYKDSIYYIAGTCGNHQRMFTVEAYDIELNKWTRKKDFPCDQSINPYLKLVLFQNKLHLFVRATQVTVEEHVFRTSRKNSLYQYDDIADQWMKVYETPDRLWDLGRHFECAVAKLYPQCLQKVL
# UniProt Q8N9M5: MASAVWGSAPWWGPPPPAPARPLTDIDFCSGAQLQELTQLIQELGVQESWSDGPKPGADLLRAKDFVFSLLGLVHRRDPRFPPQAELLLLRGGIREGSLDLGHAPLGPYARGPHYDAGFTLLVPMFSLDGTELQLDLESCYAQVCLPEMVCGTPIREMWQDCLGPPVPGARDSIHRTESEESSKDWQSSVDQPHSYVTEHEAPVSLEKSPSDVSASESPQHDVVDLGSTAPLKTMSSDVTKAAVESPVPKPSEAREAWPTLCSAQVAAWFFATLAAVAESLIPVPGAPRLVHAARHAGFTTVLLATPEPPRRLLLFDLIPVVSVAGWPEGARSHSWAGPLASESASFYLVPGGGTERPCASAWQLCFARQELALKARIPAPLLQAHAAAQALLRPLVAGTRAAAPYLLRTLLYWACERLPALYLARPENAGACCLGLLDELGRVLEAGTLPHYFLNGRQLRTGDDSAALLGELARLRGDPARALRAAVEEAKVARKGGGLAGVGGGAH
# UniProt Q8TB40: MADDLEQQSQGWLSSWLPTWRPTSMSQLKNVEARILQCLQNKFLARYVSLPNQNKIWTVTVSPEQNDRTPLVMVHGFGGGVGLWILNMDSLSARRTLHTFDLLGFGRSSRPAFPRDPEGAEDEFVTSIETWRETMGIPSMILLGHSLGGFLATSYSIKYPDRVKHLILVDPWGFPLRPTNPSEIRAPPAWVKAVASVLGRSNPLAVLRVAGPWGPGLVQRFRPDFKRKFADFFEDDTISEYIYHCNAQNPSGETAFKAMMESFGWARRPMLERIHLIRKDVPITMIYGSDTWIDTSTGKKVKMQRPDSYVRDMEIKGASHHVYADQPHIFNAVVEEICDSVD
# UniProt Q8N9V3: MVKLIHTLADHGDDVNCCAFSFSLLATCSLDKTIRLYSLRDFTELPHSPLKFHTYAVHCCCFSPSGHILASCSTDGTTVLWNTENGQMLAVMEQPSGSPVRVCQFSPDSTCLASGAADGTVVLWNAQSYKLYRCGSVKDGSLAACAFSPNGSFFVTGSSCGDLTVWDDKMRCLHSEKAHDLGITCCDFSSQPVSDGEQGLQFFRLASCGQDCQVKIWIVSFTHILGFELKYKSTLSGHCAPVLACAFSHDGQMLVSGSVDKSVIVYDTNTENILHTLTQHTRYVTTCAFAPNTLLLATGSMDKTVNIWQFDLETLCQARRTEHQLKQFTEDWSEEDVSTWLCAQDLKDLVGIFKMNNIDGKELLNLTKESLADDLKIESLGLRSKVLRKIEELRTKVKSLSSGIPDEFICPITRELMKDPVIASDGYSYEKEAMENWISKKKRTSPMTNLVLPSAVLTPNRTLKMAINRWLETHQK
# UniProt Q8NBL1: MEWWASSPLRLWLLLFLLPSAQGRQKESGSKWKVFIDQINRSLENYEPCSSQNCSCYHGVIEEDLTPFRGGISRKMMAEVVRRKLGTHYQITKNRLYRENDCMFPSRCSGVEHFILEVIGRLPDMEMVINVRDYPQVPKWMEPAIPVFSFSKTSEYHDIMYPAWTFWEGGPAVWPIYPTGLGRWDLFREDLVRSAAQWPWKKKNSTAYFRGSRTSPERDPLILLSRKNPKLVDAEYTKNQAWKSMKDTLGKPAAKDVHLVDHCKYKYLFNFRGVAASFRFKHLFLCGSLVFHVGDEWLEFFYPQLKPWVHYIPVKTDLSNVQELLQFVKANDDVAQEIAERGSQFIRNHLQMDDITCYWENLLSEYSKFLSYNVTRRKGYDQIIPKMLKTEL
# UniProt Q8TAA5: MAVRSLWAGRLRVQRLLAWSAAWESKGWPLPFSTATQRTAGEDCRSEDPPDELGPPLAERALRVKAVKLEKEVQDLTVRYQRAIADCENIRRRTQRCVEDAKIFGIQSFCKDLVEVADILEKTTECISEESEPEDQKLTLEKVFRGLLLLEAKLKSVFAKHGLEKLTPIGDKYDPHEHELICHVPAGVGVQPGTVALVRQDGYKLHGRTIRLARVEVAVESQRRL
# UniProt Q8NE31: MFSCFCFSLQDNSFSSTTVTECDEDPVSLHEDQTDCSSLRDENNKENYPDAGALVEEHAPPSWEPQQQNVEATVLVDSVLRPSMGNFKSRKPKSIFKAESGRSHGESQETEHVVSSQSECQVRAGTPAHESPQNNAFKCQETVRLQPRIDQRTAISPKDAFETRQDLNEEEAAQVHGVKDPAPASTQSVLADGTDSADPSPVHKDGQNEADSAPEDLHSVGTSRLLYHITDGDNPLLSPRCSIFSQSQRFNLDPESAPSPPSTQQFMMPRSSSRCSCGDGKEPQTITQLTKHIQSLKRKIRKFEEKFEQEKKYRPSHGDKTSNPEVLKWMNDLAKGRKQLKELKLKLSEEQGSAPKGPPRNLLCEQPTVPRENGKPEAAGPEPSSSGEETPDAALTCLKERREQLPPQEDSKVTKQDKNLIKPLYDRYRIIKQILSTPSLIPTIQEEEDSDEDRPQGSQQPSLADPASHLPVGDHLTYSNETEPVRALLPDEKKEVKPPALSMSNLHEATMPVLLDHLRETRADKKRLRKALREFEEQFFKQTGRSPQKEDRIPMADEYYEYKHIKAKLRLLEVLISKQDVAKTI
# UniProt Q8NB91: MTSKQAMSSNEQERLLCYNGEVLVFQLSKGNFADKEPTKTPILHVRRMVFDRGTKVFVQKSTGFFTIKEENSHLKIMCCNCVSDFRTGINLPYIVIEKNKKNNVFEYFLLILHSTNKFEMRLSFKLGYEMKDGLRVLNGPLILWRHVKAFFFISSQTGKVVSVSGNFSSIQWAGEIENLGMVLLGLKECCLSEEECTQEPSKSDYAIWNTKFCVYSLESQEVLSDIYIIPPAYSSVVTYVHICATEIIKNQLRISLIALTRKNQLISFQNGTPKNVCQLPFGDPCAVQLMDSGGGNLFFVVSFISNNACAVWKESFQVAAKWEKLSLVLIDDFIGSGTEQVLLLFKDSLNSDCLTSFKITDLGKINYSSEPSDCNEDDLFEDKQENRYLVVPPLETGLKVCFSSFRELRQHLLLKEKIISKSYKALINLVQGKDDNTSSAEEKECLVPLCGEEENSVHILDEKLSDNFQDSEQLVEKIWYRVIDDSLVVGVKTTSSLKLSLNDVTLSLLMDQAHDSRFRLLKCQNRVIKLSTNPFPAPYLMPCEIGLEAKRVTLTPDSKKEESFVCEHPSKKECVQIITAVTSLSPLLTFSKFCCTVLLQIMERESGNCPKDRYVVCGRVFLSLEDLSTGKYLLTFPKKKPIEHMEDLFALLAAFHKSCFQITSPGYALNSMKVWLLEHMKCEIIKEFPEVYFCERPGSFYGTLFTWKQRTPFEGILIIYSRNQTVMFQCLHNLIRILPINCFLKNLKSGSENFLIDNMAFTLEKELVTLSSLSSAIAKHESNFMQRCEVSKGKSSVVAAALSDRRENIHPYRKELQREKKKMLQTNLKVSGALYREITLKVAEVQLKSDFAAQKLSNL
# UniProt Q8N831: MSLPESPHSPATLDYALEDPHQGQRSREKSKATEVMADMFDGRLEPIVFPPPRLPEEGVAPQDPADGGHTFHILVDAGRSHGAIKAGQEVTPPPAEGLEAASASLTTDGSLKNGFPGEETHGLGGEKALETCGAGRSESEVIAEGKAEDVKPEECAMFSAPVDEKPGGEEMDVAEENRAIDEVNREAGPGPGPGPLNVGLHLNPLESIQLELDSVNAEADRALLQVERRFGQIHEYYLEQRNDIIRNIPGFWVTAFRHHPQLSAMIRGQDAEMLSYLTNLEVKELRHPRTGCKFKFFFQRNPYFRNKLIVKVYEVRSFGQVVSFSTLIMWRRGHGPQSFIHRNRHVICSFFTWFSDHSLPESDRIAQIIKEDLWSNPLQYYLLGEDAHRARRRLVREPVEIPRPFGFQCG
# UniProt Q8NDF8: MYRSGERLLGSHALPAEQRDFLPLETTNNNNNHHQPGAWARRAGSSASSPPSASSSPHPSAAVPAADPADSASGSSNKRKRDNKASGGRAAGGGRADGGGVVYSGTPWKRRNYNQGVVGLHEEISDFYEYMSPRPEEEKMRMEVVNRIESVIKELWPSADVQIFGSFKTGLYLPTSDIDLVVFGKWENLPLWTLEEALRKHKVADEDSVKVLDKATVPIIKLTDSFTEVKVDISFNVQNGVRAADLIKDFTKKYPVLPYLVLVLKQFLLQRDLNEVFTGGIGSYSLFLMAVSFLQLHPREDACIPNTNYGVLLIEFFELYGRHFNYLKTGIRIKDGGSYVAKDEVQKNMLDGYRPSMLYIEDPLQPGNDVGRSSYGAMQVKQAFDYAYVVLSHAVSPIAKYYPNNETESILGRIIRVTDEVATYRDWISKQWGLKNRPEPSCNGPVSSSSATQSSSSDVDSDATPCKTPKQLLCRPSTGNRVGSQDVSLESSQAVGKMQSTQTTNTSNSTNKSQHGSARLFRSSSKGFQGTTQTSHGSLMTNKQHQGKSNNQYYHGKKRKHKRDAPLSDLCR
# Some of the results follow. Most entries show no effect beyond the scatter of the controls.
# Compound: CN[C@@H]1C[C@H]2O[C@@](C)([C@@H]1OC)n1c3ccccc3c3c4c(c5c6ccccc6n2c5c31)C(=O)NC4 [staurosporine]
# Assay: log2 fold change of tryptic peptide abundance, ligand vs vehicle (limited proteolysis) (log2 ratio); higher = more trypsin-susceptible (destabilized)
# Settings: ligand concentration: 20 uM; sample: K562 cleared lysate; digestion: 4 min, 22 C (HT-PELSA RT4min, Orbitrap Astral)
row,Target,log2 fold change
1,"CPEB3 (peptide sequence: KPFSSNVIAPPKFPR, peptide start residue: 294) (UniProt Q8NE35)",0.312
2,"TSEN2 (peptide sequence: AEAVFHAPKR, peptide start residue: 2) (UniProt Q8NCE0)",0.395
3,"THOC2 (peptide sequence: EKTPATTPEAR, peptide start residue: 1283) (UniProt Q8NI27)",0.195
4,"SPATA5 (peptide sequence: REGAQNEVEKR, peptide start residue: 462) (UniProt Q8NB90)",0.286
5,"WDR36 (peptide sequence: VVNLGVLAQK, peptide start residue: 815) (UniProt Q8NI36)",0.203
6,"ZNF740 (peptide sequence: NFVCEHCFGAFR, peptide start residue: 100) (UniProt Q8NDX6)",-0.155
7,"UniProt Q8NDB6 (peptide sequence: HRDHMAPYAVGR, peptide start residue: 98)",0.435
8,"PPFIBP2 (peptide sequence: LSGATPNGEAAK, peptide start residue: 429) (UniProt Q8ND30)",-0.178
9,"WDR19 (peptide sequence: IYLDHLNNPEK, peptide start residue: 930) (UniProt Q8NEZ3)",0.287
10,"KBTBD8 (peptide sequence: IPPQFAQAIAK, peptide start residue: 253) (UniProt Q8NFY9)",0.0537
11,"TTL (peptide sequence: YLEHPLLLEPGHR, peptide start residue: 185) (UniProt Q8NG68)",0.379
12,"UniProt Q8N8J0 (peptide sequence: EFDFFNK, peptide start residue: 1734)",-0.645
13,"ARID1B (peptide sequence: GSPVSSLPAVGK, peptide start residue: 1154) (UniProt Q8NFD5)",0.306
14,"TMEM102 (peptide sequence: AAVESPVPKPSEAR, peptide start residue: 242) (UniProt Q8N9M5)",0.244
15,"ABHD4 (peptide sequence: ILQCLQNK, peptide start residue: 35) (UniProt Q8TB40)",-0.158
16,"DNAJB14 (peptide sequence: MEGNRDEAEK, peptide start residue: 1) (UniProt Q8TBM8)",-0.226
17,"WDSUB1 (peptide sequence: EAMENWISKK, peptide start residue: 432) (UniProt Q8N9V3)",-0.244
18,"UniProt Q8NBL1 (peptide sequence: WDLFREDLVR, peptide start residue: 184)",0.695
19,"GUF1 (peptide sequence: EKEITIINPAQFPDKSK, peptide start residue: 449) (UniProt Q8N442)",0.662

row,Target,log2 fold change
1,"PIP4P2 (peptide sequence: CTVCNEATPIKNPPTGK, peptide start residue: 78) (UniProt Q8N4L2)",-0.506
2,"PAF1 (peptide sequence: TEYISTEFNR, peptide start residue: 134) (UniProt Q8N7H5)",-0.146
3,"DCAF4L2 (peptide sequence: TLYVPNR, peptide start residue: 119) (UniProt Q8NA75)",-0.208
4,"UniProt Q8N6F7 (peptide sequence: ILIFEKR, peptide start residue: 51)",0.263
5,"NUP37 (peptide sequence: TLPLCVIGGDHK, peptide start residue: 307) (UniProt Q8NFH4)",0.321
6,"AVL9 (peptide sequence: FSHSVQNSER, peptide start residue: 579) (UniProt Q8NBF6)",0.174
7,"GRPEL2 (peptide sequence: VEVAVESQR, peptide start residue: 215) (UniProt Q8TAA5)",-0.102
8,"UniProt Q8NE31 (peptide sequence: LLEVLISK, peptide start residue: 1008)",-0.294
9,"FANCB (peptide sequence: ENIHPYRK, peptide start residue: 807) (UniProt Q8NB91)",0.624
10,"D2HGDH (peptide sequence: DFIMPLDLGAK, peptide start residue: 185) (UniProt Q8N465)",-0.249
11,"TSPYL6 (peptide sequence: SESEVIAEGK, peptide start residue: 137) (UniProt Q8N831)",0.206
12,"UniProt Q8NE65 (peptide sequence: VMLENFR, peptide start residue: 63)",-0.349
13,"UniProt Q8NDF8 (peptide sequence: DAPLSDLCR, peptide start residue: 564)",0.191
14,"UniProt Q8NEV8 (peptide sequence: TESISVPTSDHR, peptide start residue: 989)",0.414
15,"HJURP (peptide sequence: LPSSPLGCR, peptide start residue: 639) (UniProt Q8NCD3)",0.183
16,"MTMR14 (peptide sequence: HIVFLEYESSEK, peptide start residue: 88) (UniProt Q8NCE2)",-0.568
17,"UniProt Q8NF67 (peptide sequence: MLEEEILNLK, peptide start residue: 197)",-0.37
18,"UniProt Q8N6R0 (peptide sequence: QRPADAEDLPAAPGQSIDK, peptide start residue: 448)",0.392

# 2 records drawn at random from the list so far, as already listed:
row,Target,log2 fold change
14,"UniProt Q8NEV8 (peptide sequence: TESISVPTSDHR, peptide start residue: 989)",0.414
6,"AVL9 (peptide sequence: FSHSVQNSER, peptide start residue: 579) (UniProt Q8NBF6)",0.174
